## Primary screen of a compound library

A: 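Growth of Mycobacterium tuberculosis over 4 days (cholesterol / DPPC medium with tyloxapol); the read-out is not stated. Concentration: 50 µM. Higher reads as more growth inhibition (inferred: compounds with an IC50 in retests scored well above the rest). Of about 69,000 compounds tested this way, about 370 (0.54%) reached 50% or more in at least one test.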
B: 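Phenotypic screen: M. tuberculosis growth, glucose 7H9 medium, 3 days; the read-out is not stated. Compounds at 50 µM. Higher reads as more growth inhibition (inferred: compounds with an IC50 in retests scored well above the rest). About 69,000 compounds were tested under these conditions; 1.1% (about 760) showed 50% or more at least once.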

Each number is a percent effect as filed. The controls that fix the scale are not given in the record; negative values are as filed. This is an unselected part of the compounds tested. Two or more numbers in one place are separate tests of the same structure; such repeats can differ widely.

{"smiles": "Cc1nnc(CN2CCC3(CCC(=O)N([C@H]4CC[C@H](O)CC4)C3)CC2)o1", "A": -1.427, "B": "-1.759 & 0.4105"}
{"smiles": "Cc1nc2ccccc2n1Cc1cc(C(=O)N2C[C@@H](C)O[C@@H](C)C2)no1", "A": 1.966, "B": "1.019 & -3.408"}
{"smiles": "CNS(=O)(=O)c1ccc(CNC(=O)c2cc(-c3ccccn3)no2)cc1", "A": -11.03, "B": 2.839}
{"smiles": "Cc1nn(C)c(C)c1S(=O)(=O)N(CC(N)=O)CC(C)C", "A": 14.33, "B": "4.25 & -5.264"}
{"smiles": "O=C(Cc1ccc2c(c1)OCO2)N1CCN(c2ccccc2Cl)C(=O)C1", "A": 2.992, "B": "4.146 & -0.2302"}
{"smiles": "Cc1nn(CC(=O)N2CCCN(c3cccnn3)CC2)c(C)c1Cl", "A": -8.62, "B": -12.09}
{"smiles": "Cc1ccnc(NC(=O)c2ccc(F)c(S(=O)(=O)NC3CC3)c2)c1", "A": 2.947, "B": 6.638}
{"smiles": "COCCOc1ccnc(-c2noc([C@@H]3CCCN3C3CCC3)n2)c1", "A": -11.13, "B": "-2.186 & -29.07"}
{"smiles": "Cc1nn(C)c(C)c1C(=O)N1CCN(C(=O)CC2CCCCC2)CC1", "A": -5.344, "B": "6.271 & -1.342"}
{"smiles": "N#Cc1ccccc1Cn1cncn1", "A": -39.66, "B": "-8.125 & -41.6"}
{"smiles": "Cc1n[nH]c2c1C(c1cnn(C)c1)SCC(=O)N2", "stereo": "stereo not given", "A": -1.852, "B": 13.25}
{"smiles": "O=C(O)CSc1nc(-c2ccc3c(c2)CCC3)n[nH]1", "A": 5.028, "B": 11.32}
{"smiles": "CC(C)(CNC(=O)COc1cccc(F)c1)C(N)=O", "A": 16.64, "B": 25.91}
{"smiles": "O=c1[nH]c(COc2ccccc2Cl)nc2c1CCNC2", "A": 19.42, "B": "-19.91 & -1.427"}
{"smiles": "CCCOc1cccc(NC(=O)NC2CCc3nc(C)nn3C2)c1", "stereo": "stereo not given", "A": 1.68, "B": 9.433}
{"smiles": "CCc1cnc(N2CCC3(CCN(Cc4cccc(C)c4)C3=O)C2)nc1", "stereo": "stereo not given", "A": -5.819, "B": 10.97}
{"smiles": "Fc1cnc(N2CCCC3(CCN(Cc4ccco4)C3)C2)nc1.O=C(O)C(F)(F)F.O=C(O)C(F)(F)F", "stereo": "stereo not given", "A": -6.692, "B": -4.13}
{"smiles": "CCS(=O)(=O)c1ccccc1N1CCC(NC(C)=O)CC1", "A": -12.79, "B": -5.078}
{"smiles": "[H][C@@]12CNC[C@]1([H])CN(C(=O)c1ccc(S(=O)(=O)NCC(F)F)cc1)C2", "A": 6.54, "B": 1.652}
{"smiles": "Cn1ccnc1COc1ccc(CSc2nncn2C2CC2)cc1", "A": "2.4 & -0.7383", "B": 6.777}
{"smiles": "O=C(O)C(c1cccc2c1OCC2)N1CCC(N2CCCC2)CC1", "stereo": "stereo not given", "A": 12.45, "B": 15.7}
{"smiles": "COc1cc2c(cc1CN1CCCCC1CN1CCOCC1)CCC2", "stereo": "stereo not given", "A": -6.429, "B": 17.04}
{"smiles": "COCCC1(CNC(=O)NCC2CN(C)CCN2C)CCC1", "stereo": "stereo not given", "A": -7.586, "B": "-26.23 & 3.721"}
{"smiles": "Cc1cc(N2CCCCC2)c(C#N)c(C)n1", "A": 7.793, "B": 10.47}
{"smiles": "COc1ccccc1S(=O)(=O)Nc1ccc2c(C(=O)O)c[nH]c2c1", "A": -10.82, "B": 10.3}
{"smiles": "CC1CCC(NCCNC(=O)c2cccs2)CC1", "stereo": "stereo not given", "A": -0.9208, "B": 26.3}
{"smiles": "CS(=O)(=O)N1CCCC12CCCN(C(=O)c1ccncc1)C2", "stereo": "stereo not given", "A": "-1.844 & -2.119", "B": "-0.9448 & -0.41"}
{"smiles": "CCn1cnnc1C1CCN(C(=O)COCCc2ccccc2)CC1", "A": 2.448, "B": 3.406}
{"smiles": "CCCn1nc(C)c(CNC(=O)C2COc3ccc(OC)cc3C2)c1C", "stereo": "stereo not given", "A": 1.873, "B": 2.341}
{"smiles": "O=c1[nH]ncn1-c1cccc(C(F)(F)F)c1", "A": -26.74, "B": "14.73 & -3.256"}
{"smiles": "O=C1CN(c2ccc(CNC(=O)Nc3nccs3)cc2)CCN1", "A": -7.336, "B": -16.09}
{"smiles": "Cc1nc(CN2CCc3ncnc(C)c3CC2)cs1.O=C(O)C(F)(F)F", "A": -1.143, "B": -5.661}
{"smiles": "Cc1cc(CNCc2c(C)n(CC(C)C)c3ccccc23)[nH]n1", "A": 15.06, "B": "14.89 & 11.37"}
{"smiles": "CS(=O)(=O)N1CCc2c(cccc2NC(=O)Nc2ccccn2)C1", "A": "-2.981 & -1.858", "B": -19.66}
{"smiles": "O=C(CCn1cccn1)NCCOc1cccc(Cl)c1", "A": -11.41, "B": -5.477}
{"smiles": "CC(C)NC(=O)N1CCC2(COCc3cnc(-c4ccccc4)nc32)C1", "stereo": "stereo not given", "A": 1.693, "B": "11.23 & 8.972"}
{"smiles": "CN(Cc1cccs1)C(=O)CN1CCCC1Cn1cncn1", "stereo": "stereo not given", "A": -22.51, "B": -19.39}
{"smiles": "CC(=O)N1CCC2(CC1)CNc1c(F)cccc12.Cl", "A": 11.33, "B": 10.01}
{"smiles": "CC(=O)N1CCc2[nH]cnc2C12CCN(C(=O)Cc1ccccn1)CC2", "A": -0.2732, "B": -7.276}
{"smiles": "CC(C)Sc1ccc(C(C)Nc2nc3c(cnn3C)c(=O)[nH]2)cc1", "stereo": "stereo not given", "A": 3.245, "B": 4.569}
{"smiles": "[H][C@]12CC[C@]([H])(CN(Cc3ccc(OC)cc3)C1)N(S(C)(=O)=O)C2", "A": 5.275, "B": -2.541}
{"smiles": "CC(=O)N(C)CC(=O)NC(C)c1ccc(OCCC(C)C)cc1", "stereo": "stereo not given", "A": 42.46, "B": 22.44}

Source: ChEMBL document CHEMBL3988442, “University of Dundee, Small-Polar-MMV Screening Library” (2021).